The target of experiment [1] is T1, GST-Lamin (Drosophila) (UniProt P08928).
T1 sequence: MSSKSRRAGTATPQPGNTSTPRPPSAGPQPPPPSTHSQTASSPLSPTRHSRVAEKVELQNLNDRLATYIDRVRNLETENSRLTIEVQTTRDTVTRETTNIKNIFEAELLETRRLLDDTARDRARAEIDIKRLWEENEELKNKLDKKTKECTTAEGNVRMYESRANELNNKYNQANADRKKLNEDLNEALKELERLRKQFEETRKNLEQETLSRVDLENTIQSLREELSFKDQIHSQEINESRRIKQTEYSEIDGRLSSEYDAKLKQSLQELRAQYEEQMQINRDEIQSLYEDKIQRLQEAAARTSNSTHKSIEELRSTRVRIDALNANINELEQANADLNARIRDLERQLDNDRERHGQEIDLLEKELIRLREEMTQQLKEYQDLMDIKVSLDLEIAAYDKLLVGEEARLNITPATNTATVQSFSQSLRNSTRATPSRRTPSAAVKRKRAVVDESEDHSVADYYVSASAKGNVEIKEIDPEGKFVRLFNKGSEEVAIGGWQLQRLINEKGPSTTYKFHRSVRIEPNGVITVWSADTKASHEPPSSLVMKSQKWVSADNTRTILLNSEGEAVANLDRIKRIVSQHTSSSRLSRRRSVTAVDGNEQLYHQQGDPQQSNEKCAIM
The experiment in a line: pull-down.

Experiment [2] has as its target YN-dKeap1 (dKeap1 fused to the N-terminus of YFP) (Drosophila). The experiment in a line: split reporter.

These are yes or no findings as the source states them, for the method shown. For some assays here: A result given as binding can be weak or reduced; the word gives no strength. Sequences can lack the tags named with a protein. For some assays here: In cells and extracts the contact can be indirect.

dKeap1 without the GST tag (Drosophila): the binding result in experiment [1] was “binds”.

B1: YC-Tin (cardiac transcription factor Tinman fused to the C-terminus of YFP) (protein, UniProt P22711 1-416)
chain: MLQHHQQQAQSGGYYDHYTQSPSPGSLTNADALNTTPFSVKDILNMVNQTEAYEGSYGHIDGAATASALFAAGEYQNPHQYLNHQQHQQSELPIPQQQLHHQHLDDGATTSSSLSPLLPPPPHQLYGGYQDYGMPAHMFQHHHGHPHQSFQHSASAYNMSASQFYAGASATAYQTPATYNYNYAGSGEVYGGATPSAVGIKSEYIPTPYVTPSPTLDLNSSAEVDSLQAPTQKLCVNPLSQRLMETASNSSSLRSIYGSDEGAKKKDNSQVTSSRSELRKNSISGNSNPGSNSGSTKPRMKRKPRVLFSQAQVLELECRFRLKKYLTGAEREIIAQKLNLSATQVKIWFQNRRYKSKRGDIDCEGIAKHLKLKSEPLDSPTSLPPPIPNHVMWPPTMQQSQQQQQHHAQQQQMQHM
With B1, in experiment [2], the binding result was “no binding”.

(Values after doi:10.1101/2022.04.27.489742.)
